Reference: PubChem BioAssay AID1508600 (Functional Genomics Laboratory (NCATS/FGL), 2020)
The whole screen tested about 53,000 sequences, of which about 3,700 (7%) were called active.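 How the source made its calls: active means gene knockdowns whose robust z-score for IL-1 alpha signal is at least 2 or at most -2, so actives lie on both sides; inactive means the rest.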 Some of the results follow.

Assay: Components of the Cytosolic LPS Sensing Pathway: Gene Identification via Genome-wide siRNA Screen;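 further: robust z of the log signal after scaling to non-targeting control siRNA wells of the plate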
Details: RAW264.7 macrophages, IL-1a HTRF, actives lie on both sides, screened at 100 nM (by protocol), cells primed 5 h with Pam3CSK4 first
Procedure, shortened: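 Supernatant IL-1a by HTRF from RAW264.7 cells primed with Pam3CSK4 (5 hours) and transfected with LipidA (24 hour) after 48h siRNA knockdown at 100 nM; cell viability checked with CellTiter-Glo.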
For GAGAGAUUGGUAUUCCUGCTT against Olfr578, the z-score was inactive: 0.516.
With GGUACUAGAUUGGAUGUCATT against Slc39a14 the z-score was inactive: -0.363.
In the case of GGUGUCUUUUUUCCUCUUCTT against Adcy4, the z-score is reported as inactive: 1.81.
With GCUUACAUGCACUAGCCUGTT against Ric8a the z-score was inactive: 0.954.
For GGAGAUCUCCAUCACACACTT against Rps6ka1, the z-score was inactive: 0.396.
In the case of GGAGACCACGUCCAACAAUTT against Sh3bp2, the z-score is reported as inactive: -0.352.
With GCGUGAUUUUCCCUUGAGGTT against Cyp3a16 the z-score was inactive: 0.0801.
For GGAGAUGGCUUUGAUGCUGTT against Gnmt, the z-score was inactive: 0.781.
For GGUUUAUGAGUAACUGUCATT against Defb10, the z-score was inactive: -0.962.
With CCGUCAUUGUCUUGGAAGCTT against Syt5 the z-score was inactive: -0.0794.
With GCCAGCAAAAGACACAAUATT against Rspo2 the z-score was inactive: 1.04.
In the case of GCGAAGGCUAGAUGUAGUGTT against Emilin1, the z-score is reported as inactive: -1.65.
For GCUUGCUAAGAUUGAGUAUTT against Cerkl, the z-score was inactive: -0.928.
In the case of CCCUAUGCAGGGCUCAAUATT against Ankk1, the z-score is reported as inactive: -1.68.
In the case of GGCCUUUCAAGGAACCAAGTT against Psme3, the z-score is reported as inactive: 0.561.
With CCACGGAUACUUUGAACAUTT against Tmem86a the z-score was inactive: 0.701.
In the case of GGGUCCACAUACAAUAAAGTT against Emc9, the z-score is reported as inactive: 0.226.
In the case of CCCUAUUUGACAAAUUCCUTT against Cdo1, the z-score is reported as inactive: 0.245.
In the case of CCACCAUGCUUCUAAGCCUTT against Ccdc63, the z-score is reported as inactive: -1.61.
With CCGAAUGUUUUCCCACCUGTT against Lgi2 the z-score was inactive: -0.169.
With GGAGCUCUUGGAUAUAAAATT against Eif4enif1 the z-score was inactive: 0.223.
In the case of GAAAAUGGUCACUACUGAGTT against S100a8, the z-score is reported as inactive: -0.0863.
In the case of CCCUAACAGAUCUCAUUGATT against Sh2d4b, the z-score is reported as inactive: 0.0921.
For ACGAGGGCCUGAAAAACCUTT against Hbb-b2, the z-score was inactive: -0.933.
For CGCACAGUACUUUUCUCCUTT against Rtn1, the z-score was inactive: -0.343.
For GCUCUAUCGUCCAAGCUUUTT against Dazap2, the z-score was inactive: -0.117.
For CCUACUCGUGUCGUGAUAATT against Rxrb, the z-score was inactive: -0.841.
For GGCCCUAUGAUGAACCUAATT against Calb2, the z-score was inactive: -0.231.
For GCUGCUUUUUCAUUGUCACTT against Hcrtr1, the z-score was inactive: -0.778.
In the case of GCUCCUGUAGACAGGUUAGTT against Serac1, the z-score is reported as inactive: -1.39.
With GCCCAGCAAAACGAAAUACTT against Foxc2 the z-score was inactive: -0.751.
In the case of GGAGCUGAGCAACAUCACATT against Il13, the z-score is reported as inactive: -1.35.
In the case of GGCGAAUUACUUGUGUUGUTT against Nectin3, the z-score is reported as inactive: -0.306.
For GCUCAGAGAACCUUAUAAGTT against Cyp4f15, the z-score was inactive: -0.346.
In the case of GGAGGACUAGUUGUGACUUTT against Aldh1a1, the z-score is reported as inactive: -0.384.
With GGUCAUAGCUGGAUUCCUUTT against Olfr1453 the z-score was inactive: -1.47.
For GCACCUUCCAUCGGAAUGCTT against Tyw5, the z-score was inactive: -0.269.
With GGAGUUGCAUCACUUGCUCTT against BC016579 the z-score was inactive: 0.441.
For GACUGAACAGAUCUACUCUTT against Klra7, the z-score was inactive: -0.413.
In the case of GGAAAUGAAGCCAUGUUAATT against Arhgef6, the z-score is reported as inactive: -0.55.
With GCAUCGUCUGUGAAAUAUGTT against Map3k7 the z-score was inactive: 0.214.
For GGAAAUCAUCUAUUCGGACTT against Klrc1, the z-score was active: 2.62.
In the case of GGAUAUAAAGUGGCUCUGGTT against Ica1l, the z-score is reported as inactive: -0.635.
In the case of CCGUAUAAGAAGCUUUGUUTT against Dennd4a, the z-score is reported as inactive: 1.17.
For GGAACAAGAGAUUGAGCAUTT against Ccdc50, the z-score was inactive: 0.855.
For GGAUUCUCACAAGUAAUUCTT against Ifi203, the z-score was inactive: 0.272.
For “GGCCCUUUUAAAUAACUACTT against 1110004F10Rik”, the z-score was inactive: 1.1.
With GGAGAAGGAUCUGAACGAGTT against Nog the z-score was inactive: -1.24.
In the case of GGGAGACUUGUCAUGCACATT against Slc45a2, the z-score is reported as inactive: 0.728.
In the case of GGAUCACCAAAAAUAGAUATT against Rsrp1, the z-score is reported as inactive: -0.446.
With CCAAUUCCUCUCAAUGUCATT against Gpatch11 the z-score was inactive: -1.78.
For GGAUUUGUCAAACAACACATT against Ostm1, the z-score was inactive: -0.633.
In the case of GGUUUGGUUUUCAUUGUUATT against Nhlrc2, the z-score is reported as inactive: -0.157.
In the case of CCGAUGACAAUCGGCCCUUTT against Gja8, the z-score is reported as inactive: 0.74.
In the case of “GGCAAUUUUUCAAGGCUUATT against D130007C19Rik”, the z-score is reported as inactive: 0.628.
With GGCUGGAUGGCAUCUUUCUTT against Ttc22 the z-score was inactive: -0.28.
With CCCAGGGUACCUCACAUCUTT against Nrp1 the z-score was inactive: -0.595.
For GGACUAAUCCCAUUUUCUUTT against Zfp422, the z-score was inactive: -0.292.
For GGGUCCUACAGAAGGAACUTT against Mea1, the z-score was inactive: -0.208.
With GGAUCUUGAUAGACUGAUGTT against Rhox5 the z-score was inactive: 0.362.
For GGCCUAGGGAAAGCUAUGGTT against Nat8f3, the z-score was active: -2.57.
With GGUCUACCAUGACACACGUTT against Prrg2 the z-score was inactive: 0.519.
In the case of GGAAUUCCUUCACAUCUGGTT against Tc2n, the z-score is reported as inactive: 0.4.
For GGAGAUCGUUGUCCAACUCTT against Trpc2, the z-score was inactive: 0.0108.
With GGAACUCACUCGACAGAAGTT against Ciao2a the z-score was inactive: 0.882.
In the case of GGGACAGGACAGUUAGAUGTT against Msc, the z-score is reported as inactive: -0.301.
With GGGCCUAGUCAAAAUGUUGTT against Fbxo7 the z-score was inactive: -0.196.
In the case of GGAGAAGAAGAACAGGACATT against Rnf186, the z-score is reported as active: 2.35.
